From PMC4012729 come the findings set out here.

Chains of the proteins cited; added tags and fusions are not shown. Lines headed by an entry give the natural chain unless they say otherwise; changes in a name come on top.
UniProt P58397: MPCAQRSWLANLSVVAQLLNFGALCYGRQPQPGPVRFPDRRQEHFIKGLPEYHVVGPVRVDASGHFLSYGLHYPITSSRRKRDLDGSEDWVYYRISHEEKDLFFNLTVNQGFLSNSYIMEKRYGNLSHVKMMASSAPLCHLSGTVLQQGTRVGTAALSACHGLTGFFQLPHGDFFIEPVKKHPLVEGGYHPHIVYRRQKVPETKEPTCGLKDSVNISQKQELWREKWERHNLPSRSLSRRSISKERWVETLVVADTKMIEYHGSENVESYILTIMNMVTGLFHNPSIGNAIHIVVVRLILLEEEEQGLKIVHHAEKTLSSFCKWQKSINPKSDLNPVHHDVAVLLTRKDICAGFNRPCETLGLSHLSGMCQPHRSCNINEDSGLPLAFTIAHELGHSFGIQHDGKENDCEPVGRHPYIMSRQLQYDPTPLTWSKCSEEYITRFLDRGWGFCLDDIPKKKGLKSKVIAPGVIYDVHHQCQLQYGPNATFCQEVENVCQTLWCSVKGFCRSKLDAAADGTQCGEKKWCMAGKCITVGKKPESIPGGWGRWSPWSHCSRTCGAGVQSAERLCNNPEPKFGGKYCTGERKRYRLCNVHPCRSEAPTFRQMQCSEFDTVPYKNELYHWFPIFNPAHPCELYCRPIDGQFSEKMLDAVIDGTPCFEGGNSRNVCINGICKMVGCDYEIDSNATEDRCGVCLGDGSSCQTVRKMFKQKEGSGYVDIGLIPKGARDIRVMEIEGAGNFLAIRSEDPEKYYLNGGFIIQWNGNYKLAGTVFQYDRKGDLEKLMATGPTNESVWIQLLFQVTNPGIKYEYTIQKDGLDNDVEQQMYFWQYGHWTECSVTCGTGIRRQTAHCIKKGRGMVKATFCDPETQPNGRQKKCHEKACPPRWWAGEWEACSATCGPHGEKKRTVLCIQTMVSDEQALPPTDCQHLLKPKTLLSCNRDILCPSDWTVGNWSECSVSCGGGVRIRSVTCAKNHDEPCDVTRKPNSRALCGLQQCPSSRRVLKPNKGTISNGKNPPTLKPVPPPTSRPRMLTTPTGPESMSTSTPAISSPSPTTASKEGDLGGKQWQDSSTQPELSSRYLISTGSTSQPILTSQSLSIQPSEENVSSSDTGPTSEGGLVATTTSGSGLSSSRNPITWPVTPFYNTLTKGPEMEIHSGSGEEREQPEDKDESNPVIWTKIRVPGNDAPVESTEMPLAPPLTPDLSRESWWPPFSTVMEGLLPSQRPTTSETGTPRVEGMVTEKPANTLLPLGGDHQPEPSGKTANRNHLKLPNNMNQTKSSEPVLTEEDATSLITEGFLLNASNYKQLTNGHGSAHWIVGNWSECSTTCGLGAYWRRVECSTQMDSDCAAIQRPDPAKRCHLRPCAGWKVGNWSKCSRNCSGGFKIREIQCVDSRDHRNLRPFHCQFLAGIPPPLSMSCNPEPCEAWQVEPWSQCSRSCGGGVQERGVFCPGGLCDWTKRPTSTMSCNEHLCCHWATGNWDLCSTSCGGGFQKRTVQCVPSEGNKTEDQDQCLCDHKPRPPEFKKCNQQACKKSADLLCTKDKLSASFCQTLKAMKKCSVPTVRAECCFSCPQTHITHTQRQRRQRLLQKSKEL

These are yes or no findings as the source states them, for the method shown. Binding seen in cells or lysates may run through a third protein. Binding can be weak; no strength is given.

Assay [1] deals with T1, recombinant fibulin-2 (added to 293-EBNA cell extracts) (human) (UniProt P98095).
T1 sequence: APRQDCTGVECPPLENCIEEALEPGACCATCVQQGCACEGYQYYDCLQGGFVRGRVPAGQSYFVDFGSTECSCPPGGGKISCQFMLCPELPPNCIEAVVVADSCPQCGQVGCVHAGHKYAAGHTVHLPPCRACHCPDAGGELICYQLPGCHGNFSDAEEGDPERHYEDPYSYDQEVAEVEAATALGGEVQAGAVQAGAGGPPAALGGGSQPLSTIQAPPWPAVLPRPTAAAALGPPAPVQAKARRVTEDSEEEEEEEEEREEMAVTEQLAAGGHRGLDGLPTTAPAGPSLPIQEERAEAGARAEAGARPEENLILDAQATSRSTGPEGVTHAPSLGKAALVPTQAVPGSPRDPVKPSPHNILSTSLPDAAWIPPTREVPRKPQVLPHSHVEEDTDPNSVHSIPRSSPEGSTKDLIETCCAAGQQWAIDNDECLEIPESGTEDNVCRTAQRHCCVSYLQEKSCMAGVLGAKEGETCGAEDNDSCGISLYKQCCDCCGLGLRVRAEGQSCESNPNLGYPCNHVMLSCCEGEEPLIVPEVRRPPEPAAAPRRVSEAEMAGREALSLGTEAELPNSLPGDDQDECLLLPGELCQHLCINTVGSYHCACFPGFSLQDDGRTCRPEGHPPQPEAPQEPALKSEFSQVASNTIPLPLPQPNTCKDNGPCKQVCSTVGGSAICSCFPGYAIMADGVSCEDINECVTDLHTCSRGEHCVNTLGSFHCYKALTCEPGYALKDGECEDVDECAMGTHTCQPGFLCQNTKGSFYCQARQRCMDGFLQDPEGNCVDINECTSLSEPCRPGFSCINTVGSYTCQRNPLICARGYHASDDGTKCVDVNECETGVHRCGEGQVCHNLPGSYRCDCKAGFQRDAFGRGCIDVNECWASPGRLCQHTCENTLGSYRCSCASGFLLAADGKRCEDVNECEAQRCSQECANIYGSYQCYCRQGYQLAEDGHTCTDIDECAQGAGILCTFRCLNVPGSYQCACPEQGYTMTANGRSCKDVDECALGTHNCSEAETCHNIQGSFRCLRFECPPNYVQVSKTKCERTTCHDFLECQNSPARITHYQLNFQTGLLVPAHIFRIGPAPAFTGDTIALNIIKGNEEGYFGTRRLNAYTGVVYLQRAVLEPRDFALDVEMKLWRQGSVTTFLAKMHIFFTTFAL
Description: co-IP; 293-EBNA cell extracts containing ADAMTS-12-FLAG incubated with fibulin-2; immunoprecipitated with anti-fibulin-2 antibody (H-250, Protein G kit); blot for ADAMTS-12; only the target purified.

For assay [2], the target named is ADAMTS-12 tagged with a FLAG epitope (293-EBNA cells) (human) (UniProt P58397). Description: co-IP; 293-EBNA cell extracts containing ADAMTS-12-FLAG incubated with the indicated amounts of fibulin-2; immunoprecipitated with anti-FLAG M2 affinity gel; blot with anti-fibulin-2 antibody; only the binder purified.

For the molecule “ADAMTS-12 tagged with a FLAG epitope (293-EBNA cells) (from UniProt P58397) (enzyme)”, the binding result in assay [1] was “binds”.

B1: recombinant fibulin-2 (added to 293-EBNA cell extracts) (protein, UniProt P98095 28-1184)
chain: APRQDCTGVECPPLENCIEEALEPGACCATCVQQGCACEGYQYYDCLQGGFVRGRVPAGQSYFVDFGSTECSCPPGGGKISCQFMLCPELPPNCIEAVVVADSCPQCGQVGCVHAGHKYAAGHTVHLPPCRACHCPDAGGELICYQLPGCHGNFSDAEEGDPERHYEDPYSYDQEVAEVEAATALGGEVQAGAVQAGAGGPPAALGGGSQPLSTIQAPPWPAVLPRPTAAAALGPPAPVQAKARRVTEDSEEEEEEEEEREEMAVTEQLAAGGHRGLDGLPTTAPAGPSLPIQEERAEAGARAEAGARPEENLILDAQATSRSTGPEGVTHAPSLGKAALVPTQAVPGSPRDPVKPSPHNILSTSLPDAAWIPPTREVPRKPQVLPHSHVEEDTDPNSVHSIPRSSPEGSTKDLIETCCAAGQQWAIDNDECLEIPESGTEDNVCRTAQRHCCVSYLQEKSCMAGVLGAKEGETCGAEDNDSCGISLYKQCCDCCGLGLRVRAEGQSCESNPNLGYPCNHVMLSCCEGEEPLIVPEVRRPPEPAAAPRRVSEAEMAGREALSLGTEAELPNSLPGDDQDECLLLPGELCQHLCINTVGSYHCACFPGFSLQDDGRTCRPEGHPPQPEAPQEPALKSEFSQVASNTIPLPLPQPNTCKDNGPCKQVCSTVGGSAICSCFPGYAIMADGVSCEDINECVTDLHTCSRGEHCVNTLGSFHCYKALTCEPGYALKDGECEDVDECAMGTHTCQPGFLCQNTKGSFYCQARQRCMDGFLQDPEGNCVDINECTSLSEPCRPGFSCINTVGSYTCQRNPLICARGYHASDDGTKCVDVNECETGVHRCGEGQVCHNLPGSYRCDCKAGFQRDAFGRGCIDVNECWASPGRLCQHTCENTLGSYRCSCASGFLLAADGKRCEDVNECEAQRCSQECANIYGSYQCYCRQGYQLAEDGHTCTDIDECAQGAGILCTFRCLNVPGSYQCACPEQGYTMTANGRSCKDVDECALGTHNCSEAETCHNIQGSFRCLRFECPPNYVQVSKTKCERTTCHDFLECQNSPARITHYQLNFQTGLLVPAHIFRIGPAPAFTGDTIALNIIKGNEEGYFGTRRLNAYTGVVYLQRAVLEPRDFALDVEMKLWRQGSVTTFLAKMHIFFTTFAL
Consider B1, for which the binding result in assay [2] is recorded as “binds”.
